Laboratory results: the M2OR odorant receptor database
Where a chain is given by its changes, count along the chain named. The list shows a part of the results, in another mix than the full data. Calls are pooled over several reports, among them a noisy single-well screen. Some of the results follow.

Chains of the proteins cited; added tags and fusions are not shown. A line that says so, or that is headed by a name, gives the form on record, which may keep a tag or linker.
O51V1, as listed by the source: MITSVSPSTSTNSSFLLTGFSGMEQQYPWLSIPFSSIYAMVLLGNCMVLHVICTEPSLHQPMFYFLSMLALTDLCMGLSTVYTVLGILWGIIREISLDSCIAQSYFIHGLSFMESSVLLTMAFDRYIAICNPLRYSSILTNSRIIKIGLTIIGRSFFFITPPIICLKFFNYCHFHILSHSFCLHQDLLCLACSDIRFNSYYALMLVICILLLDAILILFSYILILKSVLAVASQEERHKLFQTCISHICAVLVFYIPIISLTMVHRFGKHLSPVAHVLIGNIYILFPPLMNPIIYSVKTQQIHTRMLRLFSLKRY
O52E8, as listed by the source: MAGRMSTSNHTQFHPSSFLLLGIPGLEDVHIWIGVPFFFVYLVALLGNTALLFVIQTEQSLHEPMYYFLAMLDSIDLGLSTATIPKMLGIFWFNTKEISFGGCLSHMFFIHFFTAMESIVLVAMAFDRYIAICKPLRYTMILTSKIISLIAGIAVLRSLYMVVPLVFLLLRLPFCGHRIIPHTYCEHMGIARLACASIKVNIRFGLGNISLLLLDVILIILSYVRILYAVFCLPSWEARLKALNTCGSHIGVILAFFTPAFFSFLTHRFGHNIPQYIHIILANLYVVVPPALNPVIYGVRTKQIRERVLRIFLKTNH
O52E1, as listed by the source: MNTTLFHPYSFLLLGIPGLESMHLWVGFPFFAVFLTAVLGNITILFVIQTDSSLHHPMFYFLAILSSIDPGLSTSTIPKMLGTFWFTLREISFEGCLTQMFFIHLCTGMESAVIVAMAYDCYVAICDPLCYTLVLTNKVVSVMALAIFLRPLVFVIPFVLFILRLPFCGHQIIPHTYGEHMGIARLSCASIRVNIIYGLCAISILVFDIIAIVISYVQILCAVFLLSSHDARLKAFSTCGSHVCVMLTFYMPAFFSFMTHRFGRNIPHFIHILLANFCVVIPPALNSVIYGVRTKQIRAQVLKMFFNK
O52E2, as listed by the source: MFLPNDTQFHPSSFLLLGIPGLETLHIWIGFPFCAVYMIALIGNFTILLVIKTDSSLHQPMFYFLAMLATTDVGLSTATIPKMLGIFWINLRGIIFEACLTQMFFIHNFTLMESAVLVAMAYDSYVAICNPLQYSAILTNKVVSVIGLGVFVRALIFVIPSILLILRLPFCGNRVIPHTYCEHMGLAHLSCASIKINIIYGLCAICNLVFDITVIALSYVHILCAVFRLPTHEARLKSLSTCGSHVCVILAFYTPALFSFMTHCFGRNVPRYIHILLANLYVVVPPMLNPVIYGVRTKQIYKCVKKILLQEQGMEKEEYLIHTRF
O52E5, as listed by the source: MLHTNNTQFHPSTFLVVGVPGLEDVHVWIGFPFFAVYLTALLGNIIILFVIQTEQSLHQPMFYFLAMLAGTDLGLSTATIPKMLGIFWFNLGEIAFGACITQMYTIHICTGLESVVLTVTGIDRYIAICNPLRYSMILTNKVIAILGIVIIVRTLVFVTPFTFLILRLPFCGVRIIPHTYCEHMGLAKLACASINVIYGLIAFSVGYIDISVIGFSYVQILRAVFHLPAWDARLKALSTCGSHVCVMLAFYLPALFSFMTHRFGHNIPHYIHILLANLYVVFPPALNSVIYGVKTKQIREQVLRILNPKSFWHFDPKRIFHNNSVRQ
O52E4, as listed by the source: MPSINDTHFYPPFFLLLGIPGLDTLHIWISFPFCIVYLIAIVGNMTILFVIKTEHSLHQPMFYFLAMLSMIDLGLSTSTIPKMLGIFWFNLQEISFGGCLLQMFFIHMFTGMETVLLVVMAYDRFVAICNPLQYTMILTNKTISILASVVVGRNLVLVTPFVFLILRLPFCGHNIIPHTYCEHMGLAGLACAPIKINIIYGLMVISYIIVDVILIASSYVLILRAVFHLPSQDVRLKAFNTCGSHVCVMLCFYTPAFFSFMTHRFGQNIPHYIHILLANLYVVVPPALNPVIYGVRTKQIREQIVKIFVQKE

Key:
Conditions in all cases: stereoisomer not certain
O51V1 [1] = system: T1, O51V1
T1 sequence (whole entry): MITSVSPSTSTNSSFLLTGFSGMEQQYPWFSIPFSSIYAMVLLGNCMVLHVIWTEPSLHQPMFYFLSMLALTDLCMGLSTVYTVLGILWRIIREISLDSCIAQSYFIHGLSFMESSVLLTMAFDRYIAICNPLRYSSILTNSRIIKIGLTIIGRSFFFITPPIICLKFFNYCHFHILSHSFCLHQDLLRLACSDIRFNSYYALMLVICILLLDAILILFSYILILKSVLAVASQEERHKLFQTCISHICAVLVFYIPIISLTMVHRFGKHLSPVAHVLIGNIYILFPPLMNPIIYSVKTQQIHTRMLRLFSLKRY
Method in brief: (§1)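 Values were gathered from published papers (main text and supplementary material), with extra details requested from the original authors when needed, and checked for typos and inconsistencies. Each receptor–molecule pair is called responsive (active) if the original authors judged the measured signal statistically different from baseline, and non-responsive (inactive) otherwise. Assay methods varied by source, often transient mammalian cell-line luciferase assays. Recorded details include cell line, G-protein, co-transfected protein and tags.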

O51V1 [2] = system: T2, O51V1; remark: listed apart in the source
T2 sequence (whole entry): T1 sequence (whole entry) with F30L, W53C, R90G, R189C
Method in brief: as §1

O52A1 = system: T3, O52A1
T3 sequence (whole entry): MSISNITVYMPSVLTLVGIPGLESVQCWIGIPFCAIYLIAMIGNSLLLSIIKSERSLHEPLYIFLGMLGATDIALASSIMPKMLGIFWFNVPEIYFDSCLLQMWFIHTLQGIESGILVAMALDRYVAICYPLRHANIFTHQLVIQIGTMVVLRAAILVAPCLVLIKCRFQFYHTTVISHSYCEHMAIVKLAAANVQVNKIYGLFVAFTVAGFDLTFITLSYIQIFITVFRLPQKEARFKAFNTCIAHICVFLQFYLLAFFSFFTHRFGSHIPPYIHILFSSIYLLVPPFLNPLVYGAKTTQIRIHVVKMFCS
Method in brief: as §1

O52B2 = system: T4, O52B2
T4 sequence (whole entry): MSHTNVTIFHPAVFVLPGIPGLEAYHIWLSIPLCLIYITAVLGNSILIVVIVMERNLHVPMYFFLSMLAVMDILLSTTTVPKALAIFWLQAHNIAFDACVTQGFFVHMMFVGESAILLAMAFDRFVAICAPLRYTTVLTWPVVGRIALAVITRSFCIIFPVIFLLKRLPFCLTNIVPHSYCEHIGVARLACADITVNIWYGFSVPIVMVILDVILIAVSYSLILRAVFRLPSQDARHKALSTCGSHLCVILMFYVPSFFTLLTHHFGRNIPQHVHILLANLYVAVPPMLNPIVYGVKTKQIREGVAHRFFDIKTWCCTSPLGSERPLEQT
Method in brief: as §1

O52B6 = system: T5, O52B6
T5 sequence (whole entry): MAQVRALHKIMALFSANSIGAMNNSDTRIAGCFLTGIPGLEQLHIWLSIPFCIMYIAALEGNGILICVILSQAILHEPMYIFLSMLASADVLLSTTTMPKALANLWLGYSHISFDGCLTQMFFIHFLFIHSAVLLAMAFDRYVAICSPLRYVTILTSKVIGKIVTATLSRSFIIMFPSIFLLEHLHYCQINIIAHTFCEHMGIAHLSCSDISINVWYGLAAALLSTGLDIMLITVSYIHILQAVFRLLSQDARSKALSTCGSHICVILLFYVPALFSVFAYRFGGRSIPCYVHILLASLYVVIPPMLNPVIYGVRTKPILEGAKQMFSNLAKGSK
Method in brief: as §1

O52E1 = system: O52E1
Method in brief: as §1

O52E2 = system: O52E2
Method in brief: as §1

O52E4 = system: O52E4
Method in brief: as §1

O52E5 = system: O52E5
Method in brief: as §1

O52E8 = system: O52E8
Method in brief: as §1

Measured: odorant receptor agonist call

CCC(C)=O
inactive: O51V1 [1] | O51V1 [2] | O52A1 | O52B2 | O52B6 | O52E1 | O52E2 | O52E4 | O52E5 | O52E8

CS
inactive: O51V1 [1] | O51V1 [2] | O52A1 | O52B2 | O52B6 | O52E1 | O52E2 | O52E4 | O52E5 | O52E8

CCCCOC(C)=O
inactive: O51V1 [1] | O51V1 [2] | O52A1 | O52B2 | O52B6 | O52E1 | O52E2 | O52E4 | O52E5 | O52E8
